Binding data for one substance are collected here from publication PMC10372082.

Amino acid sequences for entries named in this document (tags omitted).
UniProt Q92769: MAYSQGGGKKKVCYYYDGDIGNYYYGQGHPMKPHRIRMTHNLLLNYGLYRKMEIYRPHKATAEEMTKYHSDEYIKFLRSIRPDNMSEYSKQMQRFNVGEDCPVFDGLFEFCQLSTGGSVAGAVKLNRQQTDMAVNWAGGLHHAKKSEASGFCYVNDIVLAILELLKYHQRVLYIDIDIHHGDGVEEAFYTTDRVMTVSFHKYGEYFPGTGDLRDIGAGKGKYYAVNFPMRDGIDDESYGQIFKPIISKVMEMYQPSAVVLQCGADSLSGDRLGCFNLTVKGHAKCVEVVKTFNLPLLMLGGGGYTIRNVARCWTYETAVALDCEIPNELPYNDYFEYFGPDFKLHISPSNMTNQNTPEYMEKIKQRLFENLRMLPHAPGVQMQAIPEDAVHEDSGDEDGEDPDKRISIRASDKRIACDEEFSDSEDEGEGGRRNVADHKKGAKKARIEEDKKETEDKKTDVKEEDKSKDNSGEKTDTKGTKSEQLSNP
UniProt P25490: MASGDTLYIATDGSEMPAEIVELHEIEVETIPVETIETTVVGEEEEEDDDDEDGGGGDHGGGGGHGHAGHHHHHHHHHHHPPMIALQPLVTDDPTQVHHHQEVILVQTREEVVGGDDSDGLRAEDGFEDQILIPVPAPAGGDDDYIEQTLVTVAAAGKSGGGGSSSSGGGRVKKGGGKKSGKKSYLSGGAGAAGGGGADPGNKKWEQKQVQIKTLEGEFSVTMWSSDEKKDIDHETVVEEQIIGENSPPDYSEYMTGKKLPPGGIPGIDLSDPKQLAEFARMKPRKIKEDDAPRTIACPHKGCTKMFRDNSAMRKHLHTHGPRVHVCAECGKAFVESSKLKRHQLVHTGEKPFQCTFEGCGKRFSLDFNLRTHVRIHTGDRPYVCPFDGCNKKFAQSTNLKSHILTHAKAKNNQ

No constants are given. Whether binding was seen depends on the method and setting. Binding seen in cells or lysates may run through a third protein. Some entries that bind do so weakly or less than the wild type.

The target in this assay is Histone deacetylase 2 (HDAC2) (human (endogenous in A549)) (UniProt Q92769). Kind of assay: co-IP; endogenous proteins in A549 lysate (RIPA buffer, 1 mM PMSF); lysate pre-cleared with protein-A/G sepharose; IP with anti-HDAC2 or anti-YY1 at 4 °C for 8-12 h, normal IgG as negative control; washed with PBS; immunoblot. In general terms: In western blotting, separated proteins are transferred to a membrane and probed.

As to “Yin Yang 1 (YY-1) (from UniProt P25490 1-414)”, the binding result is “binds”.
